No constants are given. Whether binding was seen depends on the method and setting. In cells and extracts the contact can be indirect. These calls come from enrichment with a bait or labelling near it, and not all partners need be listed. Tags and fused reporters may be left off the sequences shown.

Chains of the proteins cited; added tags and fusions are not shown. Residues count along the entry.
UniProt P27824, residues 21-592: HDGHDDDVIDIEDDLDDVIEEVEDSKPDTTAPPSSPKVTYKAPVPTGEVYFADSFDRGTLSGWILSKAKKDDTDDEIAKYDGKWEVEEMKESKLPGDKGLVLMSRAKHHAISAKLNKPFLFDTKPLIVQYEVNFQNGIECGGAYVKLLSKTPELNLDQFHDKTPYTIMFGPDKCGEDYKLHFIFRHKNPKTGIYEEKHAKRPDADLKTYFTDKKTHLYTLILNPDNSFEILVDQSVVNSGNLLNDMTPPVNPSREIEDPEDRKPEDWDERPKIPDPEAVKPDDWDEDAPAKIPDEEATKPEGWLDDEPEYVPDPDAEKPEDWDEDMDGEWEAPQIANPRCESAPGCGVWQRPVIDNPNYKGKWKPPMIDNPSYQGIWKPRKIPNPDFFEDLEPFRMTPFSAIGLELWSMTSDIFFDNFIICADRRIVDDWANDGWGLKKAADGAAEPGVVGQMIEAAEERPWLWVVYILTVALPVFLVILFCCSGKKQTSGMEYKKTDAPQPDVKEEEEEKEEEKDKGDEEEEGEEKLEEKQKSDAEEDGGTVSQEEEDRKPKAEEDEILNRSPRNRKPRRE

This assay concerns the target T1, GFP-EMC2 (human) (UniProt Q15006).
T1 sequence: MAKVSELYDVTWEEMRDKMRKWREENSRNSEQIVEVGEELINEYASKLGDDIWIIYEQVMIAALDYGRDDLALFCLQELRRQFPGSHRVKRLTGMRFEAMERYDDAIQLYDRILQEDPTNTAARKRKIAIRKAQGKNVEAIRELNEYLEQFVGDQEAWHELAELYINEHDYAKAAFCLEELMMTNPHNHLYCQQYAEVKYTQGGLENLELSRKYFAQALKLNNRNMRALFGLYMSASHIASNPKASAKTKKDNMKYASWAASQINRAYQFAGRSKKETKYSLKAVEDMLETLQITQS
The assay is described as follows: affinity purification with mass spectrometry.

As for Calnexin (from UniProt P27824 21-592), the binding result is “binds”.

Regarding “the ATPase p97 (from UniProt P55072 1-806)”, the binding result is recorded as “binds”.

(Values after doi:10.1101/2023.11.28.569054.)
